Values quoted from earlier work, collected in patent US20140296337A1, “CNS MODULATORS” (BTG International Limited, priority 2004, published 2014).
At least one compound was matched to its structure with a doubt left.

System: EEG frequency bands (delta, theta activity)
Details: drugs affecting the cholinergic system; cited from earlier work

CNC(=O)Oc1ccc2c(c1)[C@]1(C)CCN(C)[C@@H]1N2C [physostigmine]
change of delta activity: decrease followed by late increase
